# Laboratory results from PubChem BioAssay AID2417 (National Center for Advancing Translational Sciences (NCATS), 2010).
# In all, about 140,000 compounds went through this assay and about 4,300 (3.1%) were called active. This list was built around the results that the source calls inconclusive (neither active nor inactive); the mix of calls is not that of the screen.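 Rule for the calls: active = readout at or below -70, meaning at least 70% loss of cells showing the perinucleolar compartment, a nuclear body marking cancer cells; inconclusive = readout between -30 and a set limit; inactive = the rest.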
# Assay: High Content Assay for Compounds that inhibit the Assembly of the Perinucleolar Compartment;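 note: plate controls were DMSO wells for no effect and camptothecin positive control wells for full effect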
# Conditions: PC3M PTB-GFP, PNC prevalence imaging, 16 h; at 10 µM; stronger effect = lower value
# Method in brief: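 Compounds are pinned in duplicate onto adhered PC3M cells stably expressing GFP-tagged PTB and incubated 16 h at 37 C. Cells are then fixed, nuclei stained with Hoechst, and PNC-positive cells counted.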
row,SMILES,"activity change (PNC), negative = inhibition"
1,CCSc1cc(N2CCCC2)nc(-c2ccc(F)cc2)n1,inconclusive: -37%
2,Cc1ccc(SC(C)C(=O)N2CCCC2)cc1 (centres undefined),inconclusive: -39.5%
3,CC(C)(C#N)C(C)(C)c1nn[nH]n1,inconclusive: -39.2%
4,O=C(NNC(=O)[C@@H]1CCCC[C@@H]1C(=O)O)c1cccs1,inconclusive: -36.8%
5,Cc1cccc(-c2nc(=S)c3c(n2Cc2ccco2)CCCC3)c1,inconclusive: -66.6%
6,CC(Sc1nnnn1C)C(=O)Nc1ccccc1-c1ccccc1 (centres undefined),inconclusive: -32.6%
7,Cn1c(=O)oc2cc(S(=O)(=O)N3CCCc4ccccc43)ccc21,inconclusive: -78.7%
8,O=c1ccccn1CCOc1ccccc1Cl,inactive: -3.48%
9,CCOC(=O)c1ccc(NC(=O)CC2OCCN(CC)C2=O)cc1 (centres undefined),inactive: -25.5%
10,CCOC(=O)C1=NN(c2ccc([N+](=O)[O-])cc2)CC1C(=O)OC (centres undefined),inactive: -17.5%
11,COc1cc(/C=N/Nc2ccc([N+](=O)[O-])cc2S(=O)(=O)N2CCOCC2)cc(OC)c1OC,inactive: 16.9%
12,CCN(CC)S(=O)(=O)c1ccc(/C=C/C(=O)Nc2ccc(F)c(F)c2F)cc1,inconclusive: -51.6%
13,O=C(CSc1ccc(-c2ccccc2)nn1)Nc1ccc2c(c1)OCCO2,active: -113%
14,CCOC(=O)N1CCC(NC(=O)CC(NS(=O)(=O)c2ccc(C)cc2)c2ccco2)CC1 (centres undefined),inactive: -0.17%
15,NCCCC[C@@H]1NC(=O)c2cc([N+](=O)[O-])cc(I)c2SC[C@@H](C(=O)NCC(N)=O)NC(=O)CNC1=O,inconclusive: -37%
16,COc1cccc(C(=O)Nc2cccc(C(=O)NC3=NN(c4c(Cl)cc(Cl)cc4Cl)C(=O)C3)c2)c1,inactive: 37.8%
17,O=C1N=C(N2CCOCC2)S/C1=C1\C(=O)N(Cc2ccccc2)c2ccccc21,inactive: 25.8%
18,Cc1onc(-c2c(F)cccc2Cl)c1C(=O)NCc1ccccn1,inactive: -21.1%
19,Cn1c(=O)c2c(SCc3cccnc3)nc(CC(C)(C)C)nc2n(C)c1=O,inconclusive: -30.2%
20,Cc1oncc1C(=S)Nc1ccccc1,active: -91.8%
21,COC(=O)c1cc(OC)c(OCc2cc(C(=O)OC)oc2C)c(OC)c1,inconclusive: -62.2%
22,CCCCCCCc1c(C)nc(N2CCOCC2)[nH]c1=O,inconclusive: -43.5%

row,SMILES,"activity change (PNC), negative = inhibition"
1,CC1CN(CCOc2ccc(Cl)cc2Cl)CC(C)O1 (centres undefined),inconclusive: -55.6%
2,O=C(/C=C/c1cccc2ccccc12)c1ccncc1,inactive: 62%
3,Cc1ccc(S(=O)(=O)/N=C(\c2ccccc2)N(C)S(=O)(=O)c2ccccc2)cc1,inactive: -12.2%
4,CN(C1=C(NC(=O)c2ccccc2)C(=O)c2ccccc2C1=O)C1CCS(=O)(=O)C1 (centres undefined),inactive: 95.3%
5,Cn1c(SCCCC(=O)c2ccc(F)cc2)nnc1-c1ccncc1,inconclusive: -49.7%
6,CC(=O)Nc1ccc(S(=O)(=O)c2ccc(N)cc2)cc1,inconclusive: -33.7%
7,CCOc1ccccc1NC(=O)c1cc(S(=O)(=O)N2CCC3(CC2)OCCO3)ccc1F,inconclusive: -31.8%
8,CC1CC(C)CN(c2cc3c(cc2[N+](=O)[O-])C(=O)N(c2ccccc2)C3=O)C1 (centres undefined),inconclusive: -75.9%
9,COc1ccc(C2(NC(C)=O)CCN(C(=O)c3cccs3)CC2)cc1,inactive: -29.9%
10,CC(C)CCC(CC(C)O)c1n[nH]c(=S)n1-c1ccccc1 (centres undefined),inconclusive: -31.2%
11,COc1ccccc1-c1cc(C(=O)Nc2cccnc2)no1,inconclusive: -74.4%
12,CN1CCCc2cc(C=O)ccc21,inactive: -12.8%
13,Cn1nnc2cc(C(=O)N3CCCCCC3)ccc21,inconclusive: -41.8%
14,CN(C)c1ccc(-c2noc(C3CCN(S(=O)(=O)c4cccc(Cl)c4)CC3)n2)cc1,inactive: 31.8%
15,O=C(COc1ccccc1)Nc1cccc(-c2nc3cc4ccccc4cc3[nH]2)c1,inactive: -11.8%
16,CC1CCN(C(c2ccc(N(C)C)cc2)c2nnnn2Cc2ccc(F)cc2)CC1 (centres undefined),inconclusive: -56.3%
17,COc1ccc(Cn2nnnc2C(c2cc(OC)ccc2OC)N2CCC(C(N)=O)CC2)cc1 (centres undefined),inactive: 11%
18,NC(=O)c1ccc(-n2nnnc2SCC(=O)Nc2ccccc2-c2ccccc2)cc1,inconclusive: -65.8%
19,N/C(CN1CCCC1=O)=N\OC(=O)c1ccccc1Cl,active: -87.1%
20,Cc1ccc(CNCC2CCCO2)o1 (centres undefined),inactive: -14.5%
21,COC(=O)c1ccc(CSc2nnc(SCc3ccc(C(=O)OC)o3)s2)o1,inconclusive: -63.8%
22,COc1ccc(C(c2nnnn2CS(=O)(=O)c2ccc(C)cc2)N2CCN(c3ncccn3)CC2)cc1 (centres undefined),inconclusive: -30.3%

# Structures listed so far that contain a nitro group on carbon, in the order listed:
row,SMILES,"activity change (PNC), negative = inhibition"
10,CCOC(=O)C1=NN(c2ccc([N+](=O)[O-])cc2)CC1C(=O)OC (centres undefined),inactive: -17.5%
11,COc1cc(/C=N/Nc2ccc([N+](=O)[O-])cc2S(=O)(=O)N2CCOCC2)cc(OC)c1OC,inactive: 16.9%
15,NCCCC[C@@H]1NC(=O)c2cc([N+](=O)[O-])cc(I)c2SC[C@@H](C(=O)NCC(N)=O)NC(=O)CNC1=O,inconclusive: -37%
8,CC1CC(C)CN(c2cc3c(cc2[N+](=O)[O-])C(=O)N(c2ccccc2)C3=O)C1 (centres undefined),inconclusive: -75.9%
